Laboratory results published in publication PMC7819943, “Rice protein-binding microarrays: a tool to detect cis-acting elements near promoter regions in rice”.
Some of the results follow.

Chains of the proteins cited; added tags and fusions are not shown.
UniProt Q0JBA9, entry or part of it: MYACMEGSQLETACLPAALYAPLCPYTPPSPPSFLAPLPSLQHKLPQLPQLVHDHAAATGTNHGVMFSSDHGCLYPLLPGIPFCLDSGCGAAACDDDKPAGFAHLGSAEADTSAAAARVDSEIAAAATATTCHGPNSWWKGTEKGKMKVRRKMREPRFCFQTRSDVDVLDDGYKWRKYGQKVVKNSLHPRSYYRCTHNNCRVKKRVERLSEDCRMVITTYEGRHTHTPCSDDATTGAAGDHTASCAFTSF

Each sequence was assayed against OsWRKY34 (Oryza sativa, UniProt Q0JBA9 1-250) (assay: protein-binding microarray (RPBM); PBS, 2% BSA, 51.3 ng/ul salmon testes DNA, 50 uM zinc acetate, 200 nM TF, 25 C, 1 h; high values mean tight binding). Conditions: protein: recombinant; tags: N-terminal polyhistidine and DsRed monomer fusion (pET32a); label: CyDye5-dUTP incorporated in the synthesized complementary strand; 3' TTTTT single-stranded linker to array surface; dsDNA, one strand shown.
In short: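 The binding signal is fluorescence intensity per feature, in arbitrary units, read on an Axon 4000B scanner. Polyhistidine- and DsRed-tagged transcription factors (N-terminal fusions) from E. coli BL21-CodonPlus were purified on Ni–NTA and applied at 200 nM for 1 h at 25 °C to a double-stranded, BSA-blocked custom Agilent array in buffer with 50 µM zinc acetate.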

Compared with “CAATCAATCTCGAGCTCTCCGCCAATACAAACTTGACAACCGGAGTCACCTAGTGCAG”, “GGAGGTGGAGGGGTAAGGTGTGGGATCGCGGTGACGCCGCCGGAGTCACCTAGTGCAG” is higher in binding signal: 8250 fluorescence intensity (a.u.) for the first, 10400 fluorescence intensity (a.u.) for the second.

Compared with “TGAAGGGCGGGAGGGGCGTTGCGCGGGAGTGGCCGCGCGGCGGAGTCACCTAGTGCAG”, “TTTTCTCTCACTTACATATGGGCCCCATGTACCTTTTTTTCGGAGTCACCTAGTGCAG” is higher in binding signal: 8670 fluorescence intensity (a.u.) for the first, 9310 fluorescence intensity (a.u.) for the second.

First: TTTCGTCATGTCTTCATCTTCGGTTGCTAGGTCACGCCGTCGGAGTCACCTAGTGCAG
Second: ACGTGGTCCCGGGCATCTAGCATTCTACCCGCAATGGTTGCGGAGTCACCTAGTGCAG
The binding signal of the first is lower: 9980 fluorescence intensity (a.u.) for the first, 10400 fluorescence intensity (a.u.) for the second.

First: ATATGGCGCGCTACGGATGGTTGTGGTGGGGAAAAAGCCCCGGAGTCACCTAGTGCAG
Second: GGGTGATATATTTCATATTAATCTATGTTGTTAATTTTTTCGGAGTCACCTAGTGCAG
The binding signal of the first is lower: 8380 fluorescence intensity (a.u.) for the first, 10600 fluorescence intensity (a.u.) for the second.

Going from “GCCCAAATATTCCCGTGGCCCATCTCCTCCTCCGTCTCGGCGGAGTCACCTAGTGCAG” to “ATCGACTTCATCCTCCTGTGCATTTCATCTTTTTCTTTATCGGAGTCACCTAGTGCAG”, the binding signal rises from 8060 fluorescence intensity (a.u.) to 8770 fluorescence intensity (a.u.).

First: ATCAAAGTTGCTGGGGTTAATTTGGGTTCTTGGTTGTGAACGGAGTCACCTAGTGCAG
Second: GTAGCGGCGGCCCGGCAGGAGGGGAGGCGGGGTGGCGGGACGGAGTCACCTAGTGCAG
The binding signal of the first is lower: 15600 fluorescence intensity (a.u.) for the first, 16200 fluorescence intensity (a.u.) for the second.

Compared with “AGCCCACCGTCGCAGCCGGAGCAACCGCACTGTTCACACACGGAGTCACCTAGTGCAG”, “ATCCTCCGTCTCTTCTGTCTCTCTCTCAAGTCTGAGCAACCGGAGTCACCTAGTGCAG” is higher in binding signal: 8140 fluorescence intensity (a.u.) for the first, 8370 fluorescence intensity (a.u.) for the second.

Going from “GACGAGCATTCCTGCCGTTCCCGGTACACGTCGTCCCTCTCGGAGTCACCTAGTGCAG” to “GCGGCGCCTTCTCCAGTTCTCTTGCTTGGCAACTGATCCGCGGAGTCACCTAGTGCAG”, the binding signal rises from 8360 fluorescence intensity (a.u.) to 8710 fluorescence intensity (a.u.).

First: TCAATTAATTTTATTCGATTCATAGCCTCGACATTACTAGCGGAGTCACCTAGTGCAG
Second: CTCTTCGTCCAGTTCATCATCCTCGTCCGCCCCATCGACGCGGAGTCACCTAGTGCAG
The binding signal of the first is higher: 8850 fluorescence intensity (a.u.) for the first, 8570 fluorescence intensity (a.u.) for the second.

First: ATTTTGGAAGTTTTTGTCATAGGGGTATTTTGGTCATTTCCGGAGTCACCTAGTGCAG
Second: AGGAAAACAAAATCCTTCACACCGTTTTTTTCTAATATACCGGAGTCACCTAGTGCAG
The binding signal of the first is higher: 11200 fluorescence intensity (a.u.) for the first, 8660 fluorescence intensity (a.u.) for the second.

Going from “GAGACATCCTTAGCCGGGTCTGTGATCACTTTTGCTTACACGGAGTCACCTAGTGCAG” to “GGCCTTGTTTTTTTTTTTGCTAGTAATTTAGGTTCCACAACGGAGTCACCTAGTGCAG”, the binding signal falls from 12000 fluorescence intensity (a.u.) to 9880 fluorescence intensity (a.u.).

Compared with “GATAAGGCGCCCCACCCGTCAGTCTCACGGTTTCTGCTTTCGGAGTCACCTAGTGCAG”, “GCTCTAACTCCTCCAATCTCCTAGCCAAAGTAATCCATAGCGGAGTCACCTAGTGCAG” is lower in binding signal: 10700 fluorescence intensity (a.u.) for the first, 8090 fluorescence intensity (a.u.) for the second.

First: ATATTCAGTTTGTTTCTCCTGGCAGAACCACTTTTCTTCTCGGAGTCACCTAGTGCAG
Second: CTGTTAGTTTCTAGTTGCTGTTTACATTGTAACTTTTTGTCGGAGTCACCTAGTGCAG
The binding signal of the first is higher: 11500 fluorescence intensity (a.u.) for the first, 11000 fluorescence intensity (a.u.) for the second.

Compared with “TAGAACCGTCATCTCCCGCCTGGGCCCCACATACCAGCCACGGAGTCACCTAGTGCAG”, “GCTGCTACTCTCAACCAGTTCTTCTTTCCTATACCACCACCGGAGTCACCTAGTGCAG” is higher in binding signal: 8420 fluorescence intensity (a.u.) for the first, 10500 fluorescence intensity (a.u.) for the second.

Going from “CATTTTAGAACTTGTTGGTACTGTACTTGTTTTTTTTTTTCGGAGTCACCTAGTGCAG” to “CTCATTTCCAAACACATATACATTATTCACAGCTAGCACTCGGAGTCACCTAGTGCAG”, the binding signal falls from 8720 fluorescence intensity (a.u.) to 8200 fluorescence intensity (a.u.).

Compared with “GTTAGTTTTGGAAGTTGAGGGACATATCATATCTGGTGTTCGGAGTCACCTAGTGCAG”, “CAGTTCCGTCTTCCGTCCGCCTCACTCACGGCGTCGCGCCCGGAGTCACCTAGTGCAG” is higher in binding signal: 8570 fluorescence intensity (a.u.) for the first, 10000 fluorescence intensity (a.u.) for the second.

Going from “GAGGGAGTATGGTTTTCAAAATAATCGGTTTAACAGTTTTCGGAGTCACCTAGTGCAG” to “GCAGCCGGACCGTCACGTTGCTTGCGCTGTTGGCTGTTGCCGGAGTCACCTAGTGCAG”, the binding signal rises from 8030 fluorescence intensity (a.u.) to 8910 fluorescence intensity (a.u.).

Going from “ACCCTATGGATTTTTGTGCGCTTATATACCACTTCTACTTCGGAGTCACCTAGTGCAG” to “CAGCCACGCCGCCGCGTGCGCCTCTCGTTTTTCCTCTTCTCGGAGTCACCTAGTGCAG”, the binding signal falls from 9910 fluorescence intensity (a.u.) to 8040 fluorescence intensity (a.u.).

First: CGTACGAGACATTTGCTTATCTCATACTCCCTCCGTCCTACGGAGTCACCTAGTGCAG
Second: TCAGCCGACCTTGCCGTCACACATTAACTGTTCGCTCAGACGGAGTCACCTAGTGCAG
The binding signal of the first is higher: 10600 fluorescence intensity (a.u.) for the first, 8730 fluorescence intensity (a.u.) for the second.

Compared with “CATTTGCATCATAGTGTTCAGCTGTTTCTCTCCCTGCTGCCGGAGTCACCTAGTGCAG”, “AGACAATTTTGTACTGTTGTACCACATGCATCTTGTGCCCCGGAGTCACCTAGTGCAG” is lower in binding signal: 8750 fluorescence intensity (a.u.) for the first, 8210 fluorescence intensity (a.u.) for the second.

Compared with “GCATGGGTCGGGCAGCAGATGGGGAGGTGAGAGTGGGAAACGGAGTCACCTAGTGCAG”, “ATCGCTCACAGGTTATGTTTTCACTATTGGAGGATGTGCTCGGAGTCACCTAGTGCAG” is lower in binding signal: 10400 fluorescence intensity (a.u.) for the first, 8140 fluorescence intensity (a.u.) for the second.
